This note sets out measurements from PubChem BioAssay AID2685 (National Center for Advancing Translational Sciences (NCATS), 2010).

This assay is described as follows: qHTS Assay for Lipid Storage Modulators in Drosophila S3 Cells.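 For cell number change: cells counted by Cell Tracker Red CMTPX staining in the red channel.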 The conditions noted are these: BODIPY lipid droplet fluorescence, 18-24 h; for cell number change: measured here: cell count max response, cells fed with added oleic acid. In outline: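 Drosophila S3 cells got compounds at several concentrations plus oleic acid (400 uM solution). Laser-scanning cytometry with 488 nm excitation read lipid droplets at 500-530 nm and cells at 575-640 nm. Percent activity was relative to 20 uM Triacsin C.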

Where [1] appears, read: measured here: cell number channel AC50, cells fed with added oleic acid.
Setting [2] is: measured here: lipid fluorescence (Fed channel) AC50, cells fed with added oleic acid.

This is one part of the list. The main result of the screen is listed elsewhere. These columns were measured beside it and carry no call. The list favours compounds with an active or inconclusive main result. Words in brackets tell the shape of the fitted curve; partial curves, single points and poor fits give uncertain potencies.

As for `CSc1nc2ccc(NC(=O)c3ccc(=O)n(C)n3)cc2s1`, the cell number change was found to be 93.8%. Besides, under setting [1], the half-maximal activity concentration (AC50) is 6.51 µM [falling, single point]. Also, under setting [2], the half-maximal activity concentration (AC50) was 5.17 µM [falling, single point].

With `CCOCCc1nnc(NC(=O)Cc2ccc(Br)cc2)s1`, the AC50 runs as follows: under setting [1], 2.06 µM [rising, partial curve]; under setting [2], 1.3 µM [rising, partial curve].

As to `Cn1c(SCc2ccc([N+](=O)[O-])cc2)nc2c(c1=O)SCC2`, the cell number change was -15.3%.

Regarding `CC1CCCCC1NC(=O)Cn1c(=O)oc2cc(S(=O)(=O)N3CCCC3)ccc21` (stereo not given), the cell number change was determined as 12%. Moreover, the AC50 under setting [2] is 0.092 µM [falling, full curve, poor fit].

In the case of `CCN1CC2=C(OC(N)=C(C#N)C2c2cccs2)/C(=C\c2cccs2)C1` (stereo not given), the AC50 was 2.91 µM [rising, partial curve, poor fit] under setting [1] and 1.46 µM [rising, partial curve] under setting [2].

As to `Brc1ccccc1-c1nnc(COc2cccc3cccnc23)o1`, the cell number change was determined as 44.8%. Further, the AC50 under setting [1] is 5.8 µM [rising, partial curve, poor fit]. Also, under setting [2], the AC50 is 11.6 µM [rising, partial curve].

As for `COc1ccc(-c2n[nH]c(=S)o2)c(OC)c1`, the cell number change worked out at 14.3%. Also, the half-maximal activity concentration (AC50) under setting [2] is 29.1 µM [rising, single point].

As to `COc1ccc(CCNc2nc(-c3sc(C)nc3C)cs2)cc1OC`, the cell number change was -60.9%. Also, the AC50 under setting [1] is 20.6 µM [falling, partial curve]. The AC50 under setting [2] is 1.16 µM [rising, full curve].

For `COc1ccccc1C(=O)NC(CCSC)C(=O)NCC(c1ccccc1OC)N1CCCC1` (stereo not given), the cell number change was 0.962%. Moreover, the AC50 under setting [2] is 0.0731 µM [falling, full curve, poor fit].

As for `CCC(C)(C)n1nnnc1C(c1ccc(OC)cc1)N1CCN(C(=O)c2ccco2)CC1` (stereo not given), the cell number change came out at 9.17%.

On to `COC(=O)c1cc(C(=O)OCC(=O)NNC(=O)c2cccs2)cc([N+](=O)[O-])c1`, for which the cell number change turned out to be 74.3%. In addition, the AC50 under setting [1] was 9.2 µM [rising, partial curve].

In the case of `O=C(NNS(=O)(=O)c1ccc(Br)cc1)c1csnn1`, the cell number change is -17.8%. Also, the AC50 under setting [1] is 0.00651 µM [falling, full curve, poor fit].

Turning to `COc1ccc(CNC(=O)c2cc3cccc(O)c3oc2=N)cc1`, the cell number change is -0.862%. In addition, the concentration at half-maximal activity (AC50) under setting [2] is 4.61 µM [falling, full curve, poor fit].

As to `COc1ccc(Cl)cc1NC(=O)CCc1nnc2ccc(N3CCC4(CC3)OCCO4)nn12`, the AC50 under setting [2] is 18.4 µM [falling, partial curve].

Consider `Cc1cccc2cc(CN(Cc3ccco3)S(=O)(=O)c3ccc4c(c3)OCCO4)c(=O)[nH]c12`, for which the cell number change is -17.3%.

Take `CC1CC(C)CN(CCCNC(=O)CC2Oc3ccccc3NC2=O)C1` (stereo not given): the cell number change came out at 11.4%. Moreover, the AC50 under setting [2] was 0.231 µM [falling, full curve].

On to `CS(=O)(=O)c1cccc(C(=O)Nc2nnc(C3=COCCO3)o2)c1`, for which the cell number change was -2.53%. Further, under setting [2], the half-maximal activity concentration (AC50) is 23.1 µM [rising, partial curve, poor fit].

Turning to `CON(C)S(=O)(=O)c1cccc(C(=O)Nc2ccc(S(=O)(=O)NC3=NCCCCC3)cc2)c1`, the cell number change is 20%.

With `Cc1noc(C)c1COC(=O)[C@H](C)NS(=O)(=O)c1ccc(Cl)c(Cl)c1`, the AC50 under setting [2] was 0.58 µM [falling, single point].

As to `CCOC(=O)C1=C(C)N=c2s/c(=C3/C(=O)Nc4ccccc43)c(=O)n2C1c1ccc(C)cc1` (stereo not given), the cell number change was determined as 11.6%. Also, under setting [1], the AC50 was 2.91 µM [falling, single point].

Turning to `COc1ccc(N2CCN(C(=O)c3ccc(CS(=O)Cc4ccc(Cl)cc4)o3)CC2)cc1` (stereo not given), the cell number change is 46.6%. Besides, the AC50 under setting [1] is 13 µM [rising, partial curve]. Further, the AC50 under setting [2] was 4.61 µM [rising, full curve].

Regarding `Nc1ccc(C(=O)N/N=C/c2cn(Cc3ccccc3F)c3ccccc23)cc1`, the cell number change is -45%. The AC50 under setting [1] is 29.1 µM [falling, single point]. The AC50 under setting [2] is 29.1 µM [falling, single point].

For `COc1ccc(-c2cn3c(C)c(C(=O)Nc4cc(NC(C)=O)ccc4OC)sc3n2)cc1`, the cell number change was 14.4%. Under setting [2], the AC50 was 7.31 µM [rising, partial curve, poor fit].

`O=C(c1ccccn1)N1CCN(S(=O)(=O)c2ccccc2)CC1`: the cell number change is -66.1%. Under setting [1], the AC50 was 11.6 µM [falling, partial curve, poor fit]. Also, the AC50 under setting [2] was 0.0058 µM [falling, full curve, poor fit].

`COc1ccccc1-c1nc(S(=O)(=O)c2ccc(Cl)cc2)c(N(C)C)o1`: the cell number change stood at 14.6%. Besides, the concentration at half-maximal activity (AC50) under setting [2] was 23.1 µM [falling, single point].

In the case of `CC1(c2ccc(OC(F)F)cc2)NC(=O)N(CC(=O)NC2CCCC2)C1=O` (stereo not given), the cell number change was -39%. Moreover, the AC50 under setting [1] was 25.9 µM [falling, single point].

With `CSc1nsc(SCC(=O)Nc2ccccc2C(N)=O)n1`, the cell number change is -13.9%.

Regarding `CC(C(=O)NC1C=CS(=O)(=O)C1)N1C(=O)/C(=C/c2cccc(Cl)c2)SC1=S` (stereo not given), the cell number change is -46.5%. Under setting [1], the concentration at half-maximal activity (AC50) is 29.1 µM [falling, single point]. Under setting [2], the AC50 is 29.1 µM [falling, single point].

Regarding `CC(C)c1ccc(NC(=O)c2n[nH]c(=O)c3ccccc23)cc1`, the cell number change is -25.5%. The AC50 under setting [1] was 1.03 µM [falling, full curve, poor fit]. In addition, the AC50 under setting [2] is 1.16 µM [falling, full curve, poor fit].

As to `Cn1c(=O)c2c(nc(NCc3ccco3)n2Cc2ccc(Cl)cc2Cl)n(C)c1=O`, the cell number change is -3.07%. The half-maximal activity concentration (AC50) under setting [2] was 0.0651 µM [rising, partial curve, poor fit].

On to `Cc1ccc(CN(C)C(=O)CCc2nc3sc4c(c3c(=O)[nH]2)CCCC4)o1`, for which the cell number change came out at 0.99%. Under setting [1], the AC50 was 0.103 µM [rising, full curve, poor fit].

Take `CC1=CC(C)(C)N2C(=O)C(=O)c3cc(OC(=O)c4ccco4)cc1c32`: the cell number change is -51.1%. Besides, the AC50 under setting [1] was 23.1 µM [falling, partial curve, poor fit].

As for `Cc1ccc(CNCCNCCO)s1`, the cell number change came out at 39%. For the same compound, the concentration at half-maximal activity (AC50) under setting [1] was 29.1 µM [rising, partial curve].

`O=C(CSc1ccccn1)Nc1ccc2[nH]c(=O)[nH]c2c1`: the cell number change was -12.9%. The half-maximal activity concentration (AC50) under setting [2] is 29.1 µM [falling, single point].

In the case of `Cc1csc(N(C(=O)CCNC(=O)c2ccc([N+](=O)[O-])cc2)c2ccccc2)n1`, the cell number change stood at 16%. Moreover, under setting [2], the AC50 is 9.2 µM [falling, partial curve].

Consider `CN=C1SC(C(=O)O)CC(=O)N1C` (stereo not given), for which the cell number change was -1.96%.

Consider `O=C(Nc1ccccc1N1CCCC1)c1ccc(F)c(S(=O)(=O)N2CCOCC2)c1`, for which the cell number change stood at 2.09%. Moreover, under setting [2], the concentration at half-maximal activity (AC50) is 3.26 µM [falling, full curve].

In the case of `COc1ccc(N(CC(=O)NCc2cccs2)S(=O)(=O)c2cccc(C)c2)cc1`, the cell number change was determined as 122%. In addition, the half-maximal activity concentration (AC50) under setting [1] was 13 µM [rising, partial curve].

Consider `O=S(=O)(c1ccc2c(c1)CCC2)N1CCNCC1`, for which the cell number change was -4.18%. Besides, the AC50 under setting [2] was 0.231 µM [rising, full curve].

With `CC1CC(N(C(=O)C2CC2)c2ccccc2)c2ccccc2N1C(=O)C1CC1` (stereo not given), the cell number change came to 8.67%. Moreover, the AC50 under setting [2] is 0.184 µM [falling, full curve, poor fit].

On to `CCn1ncc(/C=N\NC(=O)c2csc3ccccc23)c1C`, for which the cell number change was -6.19%. Under setting [2], the half-maximal activity concentration (AC50) was 0.116 µM [falling, full curve, poor fit].

As for `CN(CC(=O)N1CCc2ccccc2C1)c1ccccc1`, the cell number change amounted to 33.4%. The half-maximal activity concentration (AC50) under setting [2] is 29.1 µM [rising, single point].

As for `CC1=C(C(=O)Nc2ccccc2C(F)(F)F)C(c2sccc2C)NC(=S)N1` (stereo not given), the half-maximal activity concentration (AC50) under setting [1] is 2.06 µM [falling, partial curve, poor fit].

With `O=S(=O)(NCc1ccc(Cl)cc1)c1cnc[nH]1`, under setting [2], the AC50 is 0.731 µM [rising, single point].

For the compound `CC(C)N(C(=O)CSc1nnc(CSc2ncccn2)n1C)C(C)C`, the cell number change is -8.11%. Besides, the half-maximal activity concentration (AC50) under setting [2] was 0.00517 µM [falling, full curve, poor fit].

On to `CCOC(=O)C1CCN(C(=O)c2cc3cc4ccc(OC)cc4nc3o2)CC1`, for which the cell number change turned out to be 7.96%. Besides, under setting [2], the half-maximal activity concentration (AC50) was 1.84 µM [rising, partial curve].

Consider `Cc1cc(OC(=O)c2ccccc2C(F)(F)F)c([N+](=O)[O-])c(=O)[nH]1`, for which the cell number change was found to be 24%. Further, the half-maximal activity concentration (AC50) under setting [2] was 29.1 µM [rising, single point].

Take `O=C(NCc1ccccn1)c1c(O)c2cccc3c2n(c1=O)CC3`: the cell number change was determined as 23.9%. Moreover, the half-maximal activity concentration (AC50) under setting [1] was 0.0731 µM [rising, full curve, poor fit]. The concentration at half-maximal activity (AC50) under setting [2] was 1.64 µM [rising, full curve, poor fit].

Regarding `COc1ccc(S(=O)(=O)N2CCN(C(=O)c3ccc(NC(C)=O)cc3)CC2)cc1`, the cell number change was 23.7%. For the same compound, the AC50 under setting [2] was 20.6 µM [rising, single point].

With `COc1ccc(-n2cnc3cc(NS(=O)(=O)c4ccc(C)cc4)ccc32)cc1`, the half-maximal activity concentration (AC50) is, setting by setting: under setting [1], 3.26 µM [rising, partial curve]; under setting [2], 2.91 µM [rising, partial curve].

Regarding `Nc1ccc2c(c1)-c1ccccc1S(=O)(=O)N2`, the cell number change is -3.11%.

Consider `O=C(NCC1CCCN(C2Cc3ccccc3C2)C1)c1cccs1` (stereo not given), for which the cell number change was -0.885%.

In the case of `O=C(COC(=O)c1cc(=O)[nH]c2ccccc12)c1ccccc1`, the cell number change is -6.33%. Under setting [1], the half-maximal activity concentration (AC50) was 0.00461 µM [falling, full curve, poor fit]. Moreover, the half-maximal activity concentration (AC50) under setting [2] is 2.31 µM [falling, partial curve].

On to `COc1ccc(N2CCN(C(=O)CSc3nc(C)cs3)CC2)cc1`, for which the AC50 under setting [1] was 3.66 µM [rising, partial curve].

As to `Cc1ccc2nc(/C(C#N)=C\c3ccc(N4CCCCC4)c([N+](=O)[O-])c3)[nH]c2c1`, the cell number change was -31.9%. Further, the AC50 under setting [1] was 18.4 µM [falling, single point]. Also, under setting [2], the AC50 is 6.51 µM [rising, single point].

As for `COc1ccc(CC(=O)Nc2cccc(S(=O)(=O)N3CCCCCC3)c2)cc1OC`, the half-maximal activity concentration (AC50) under setting [2] was 23.1 µM [falling, partial curve].

`Fc1ccc(Nc2c3c(nc4ccccc24)CCC3)cc1`: under setting [1], the half-maximal activity concentration (AC50) is 6.51 µM [rising, single point].
